In paper PMC3348450 (Investigational New Drugs, 2011):

Assays:
[1] = Treatment-related adverse events; type: in vivo, human
Outline: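 Adverse events were graded by CTCAE version 3.0 throughout both studies in 18 Japanese patients on the oral test compound, taken in the fed state. Study 1 gave 5 mg BID continuously, six patients first receiving a single 5-mg dose. Study 2 gave single 5-, 7- and 10-mg doses, then 5 mg BID. Titration was to 7 then 10 mg BID; reduction was to 3 or 2 mg BID.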

[2] = Treatment-related laboratory abnormalities, phase I Study 1 and Study 2; type: in vivo, human; conditions: treatment-related laboratory abnormality; pooled; N = 18
Outline: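 Laboratory abnormalities were pooled across 18 Japanese patients with solid tumours from two studies. Patients took the oral test compound in the fed state: 5 mg BID continuous dosing, preceded by single doses in some patients (5 mg; or 5, 7 and 10 mg in Study 2). Dose could be raised to 7 then 10 mg BID, or cut to 3 or 2 mg BID for toxicity.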

VEGFR 1 = conditions: cited from earlier work
VEGFR 2 = conditions: cited from earlier work
VEGFR 3 = conditions: cited from earlier work
[3] = treatment-related, pooled, N = 18

ALP increased, grade 3/4 [2]: 1 (6) n (%) | Hematuria, grade 3/4 [2]: 0 n (%) | Proteinuria, grade 3/4 [2]: 2 (11) n (%) | TSH decreased, grade 3/4 [2]: 0 n (%) | TSH increased, grade 3/4 [2]: 0 n (%)
SMILES: CNC(=O)c1ccccc1Sc1ccc2c(/C=C/c3ccccn3)n[nH]c2c1 [axitinib, Axitinib]
Grade 3/4 fatigue ([1]; Study 2, proactive thyroid hormone replacement therapy): no cases | Fatigue, grade 3/4 ([1]; treatment-related, pooled Study 1 and Study 2, N = 18): 5 (28) n (%) | Anorexia, grade 3/4 [1, 3]: 0 n (%) | Constipation, grade 3/4 [1, 3]: 0 n (%) | Diarrhea, grade 3/4 [1, 3]: 0 n (%) | Epistaxis, grade 3/4 [1, 3]: 0 n (%) | Headache, grade 3/4 [1, 3]: 0 n (%) | Hoarseness, grade 3/4 [1, 3]: 0 n (%) | Hypertension, grade 3/4 [1, 3]: 6 (33) n (%) | Nausea, grade 3/4 [1, 3]: 0 n (%) | Rash, grade 3/4 [1, 3]: 0 n (%) | Stomatitis, grade 3/4 [1, 3]: 0 n (%) | AST increased, grade 3/4 [2]: 0 n (%) | Concentration at which receptor tyrosine kinase inhibition is seen (VEGFR 1): picomolar concentrations | Concentration at which receptor tyrosine kinase inhibition is seen (VEGFR 2): picomolar concentrations | Concentration at which receptor tyrosine kinase inhibition is seen (VEGFR 3): picomolar concentrations
